Experimental data: article PMC11593002 (Current Issues in Molecular Biology, 2024)
Entries after “also recorded” stand apart in the source; their conditions may differ.

Assays:
Assay type in all cases: cell-based
MCF-10A = assay: MTT-dye reduction antiproliferative assay, MCF-10A; conditions: Iscador Qu both concentrations (50 or 100 µg/mL) or not specified
Description: (§1) Breast cell lines (MCF-10A, MCF-7, and MDA-MB-231) were purchased from the American Type Culture Collection—ATCC (Manassas, VA, USA). MCF-7 and MDA-MB-231 were cultivated in Dulbecco’s modified Eagle’s medium (DMEM), supplemented with 10% fetal bovine serum (FBS), 1% sodium pyruvate, and 1% MEM non-essential amino acids (NEAA) without antibiotics. The non-tumorigenic cell line (MCF-10A) was cultivated in DMEM medium (Sigma-Aldrich, St. Louis, MO, USA) and supplemented with 10% FBS, 1% sodium pyruvate, 1% non-essential amino acids (NEAA), 20 ng/mL human epidermal growth factor (hEGF), 10 μg/mL insulin, and 0.5 μg/mL hydrocortisone without antibiotics. All cell lines were maintained in a humidified atmosphere with 5% CO2 at 37 °C.
(§2) The antiproliferative activity was tested via using the standard MTT-dye reduction assay described by Mosmann. The method is based on the metabolism of the tetrazolium salt MTT to insoluble formazan. The formazan absorption was registered using a microplate reader at λ = 540 nm. The measured absorption is an indicator of cell viability and metabolic activity. Antiproliferative activities are expressed as IC50 values (concentrations required for 50% inhibition of cell growth) and were calculated using non-linear regression analysis (GraphPad Prism 8.0.2 Software, San Diego, CA, USA).

MCF-7 = assay: MTT-dye reduction antiproliferative assay, MCF-7; conditions: Iscador Qu both concentrations (10 and 20 µg/mL) or not specified
Description: as §1, §2

MDA-MB-231 = assay: MTT-dye reduction antiproliferative assay, MDA-MB-231; conditions: Iscador Qu both concentrations (40 and 80 µg/mL) or not specified
Description: as §1, §2

CC/C(=C(\c1ccccc1)c1ccc(OCCN(C)C)cc1)c1ccccc1 [Tamoxifen]
effect of combined treatment with Iscador Qu on IC50 / antiproliferative effect (MCF-10A): decrease in IC50 dose
effect of combined treatment with Iscador Qu on IC50 / antiproliferative effect (MCF-7): antagonistic effect; also recorded: negatively affected
effect of combined treatment with Iscador Qu on IC50 / antiproliferative effect (MDA-MB-231): negatively affected; also recorded: No significant alteration in IC50
